This is an account of results in PubChem BioAssay AID1487 (National Center for Advancing Translational Sciences (NCATS), 2009).

The nature of the assay: qHTS Assay for Modulators of Lamin A Splicing. The settings on record: HeLa LMNA splicing GFP/RFP minigene ratio, 48 h. Put shortly:
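Read-out is the ratio of GFP to DsRed2 object intensity, acquired by 488 nm laser-scanning cytometry on HeLa lamin A-EGFP minigene reporter cells. Compound incubation 48 hrs at 37 °C in Opti-MEM with 2% FBS; DMSO 0.5% final.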

Where [1] appears, read: measured here: RFP viability control channel.
[2] abbreviates: measured here: GFP splicing reporter channel.

Some of the results follow. These are further read-outs of the screen, such as a control signal, another cell line or another target. No call is given for them. Compounds called inactive in the main read-out are mostly missing here. Potencies come from curve fits of mixed quality, noted in brackets.

In the case of `Cc1nnc(C)n1/N=C/c1cc(Br)cc(Br)c1O`, under setting [1], the AC50 was 12.6 µM [rising, single point].
Take `COc1ccc(C2=Nn3c(nnc3-c3ccc(OC)cc3)SC2)cc1`: the half-maximal activity concentration (AC50) is, setting by setting: under setting [2], 11.2 µM [falling, partial curve]; under setting [1], 35.5 µM [falling, single point].
For `Cc1ccc(CNCc2cc3c(C(C)(C)C)nn(-c4ccccc4)c3[nH]c2=O)cc1`, the AC50 runs as follows: under setting [2], 11.2 µM [rising, single point]; under setting [1], 12.6 µM [rising, single point].
Turning to `C/C(CCc1oc2ccccc2c1-c1ccc(C)o1)=N/O`, the half-maximal activity concentration (AC50) by setting is: under setting [2], 12.6 µM [rising, partial curve, poor fit]; under setting [1], 25.1 µM [rising, single point].
For the molecule `CC(C)(C)n1nnnc1C(c1cccs1)N(Cc1ccccc1)Cc1cccnc1` (stereo not given), the AC50 was 11.2 µM [rising, partial curve, poor fit] under setting [2] and 20 µM [rising, single point] under setting [1].
In the case of `O=c1c2cnn(-c3ccccc3)c2nc(-c2cccs2)n1-c1cccc(Cl)c1`, the AC50 under setting [1] is 6.31 µM [rising, partial curve].
In the case of `Cc1nn(C)cc1/C=C/C(=O)c1ccc(O)cc1`, under setting [1], the half-maximal activity concentration (AC50) was 22.4 µM [rising, single point].
`Cc1ccc(C(=O)Nc2cc(-c3ccn[nH]3)c(C)n(N)c2=O)cc1`: the AC50 under setting [1] was 0.0224 µM [falling, full curve, poor fit].
Turning to `N#C[C@H]1[C@H](c2ccccc2)[C@](C#N)(C(=O)c2ccccc2)[C@@H]2C=Cc3ccccc3N21`, the half-maximal activity concentration (AC50) was 3.55 µM [falling, partial curve] under setting [2] and 3.98 µM [falling, partial curve] under setting [1].
`Cc1ccc(NC(=O)CSc2nc(-c3ccco3)cc(C(F)(F)F)n2)cc1C`: the half-maximal activity concentration (AC50) under setting [1] is 2.24 µM [rising, full curve].
As to `COc1ccc(-c2nn(-c3ccccc3)cc2/C=C/C(=O)OCC(=O)Nc2cccc(C#N)c2)cc1`, the concentration at half-maximal activity (AC50) under setting [2] is 0.501 µM [falling, partial curve, poor fit].
For the molecule `CCOC(=O)c1csc(NC(=O)CCSc2ccccc2)n1`, the half-maximal activity concentration (AC50) under setting [1] is 1.41 µM [falling, full curve].
Regarding `CC(C)(C)NS(=O)(=O)c1ccc(OCC(=O)NCc2ccco2)cc1`, under setting [2], the AC50 is 0.224 µM [rising, full curve, poor fit].
In the case of `CCCCNC(=S)N(C)/N=C/c1c(C)[nH]c2ccccc12`, under setting [1], the half-maximal activity concentration (AC50) is 35.5 µM [rising, single point].
Consider `ON=C1/C(=N\O)CC2(C/C1=N/O)OCCO2`, for which the half-maximal activity concentration (AC50) is 12.6 µM [rising, single point] under setting [2] and 17.8 µM [rising, single point] under setting [1].
`Cc1cccc(NC(=O)CSc2nc(=O)n(Cc3cccnc3)c3c2CCC3)c1`: the concentration at half-maximal activity (AC50) under setting [2] was 0.00891 µM [falling, full curve, poor fit].
Regarding `CC1CC(C)CN(C(=S)Nc2ccc(SC(F)F)cc2)C1` (stereo not given), under setting [1], the AC50 was 22.4 µM [rising, single point].
As for `COc1c(C(=O)NCCSC(C)(C)C)ccc2ccccc12`, the AC50 reads like this: under setting [2], 11.2 µM [rising, partial curve, poor fit]; under setting [1], 10 µM [rising, partial curve, poor fit].
Take `COc1cccc(C(=O)N(Cc2nc(-c3ccc(C)cc3)no2)C(C)C)c1`: the AC50 under setting [1] was 22.4 µM [rising, partial curve, poor fit].
Take `Cc1nc2ccccc2cc1C(=O)N/N=C/c1ccc([N+](=O)[O-])cc1`: the AC50 under setting [2] was 4.47 µM [rising, partial curve].
For the molecule `COC(c1ccccc1)c1nnc(CCC(=O)N(C)Cc2cccc(-n3cccn3)c2)o1` (stereo not given), the AC50 under setting [1] was 0.0251 µM [falling, full curve, poor fit].
As for `N#C/C(=C\c1ccc(-c2ccc(C(=O)O)cc2)o1)c1nc2ccccc2[nH]1`, the concentration at half-maximal activity (AC50) under setting [1] is 11.2 µM [rising, single point].
Regarding `Cc1cc(C)n(CC(O)COc2cccc(OCC(O)Cn3nc(C)cc3C)c2)n1` (stereo not given), under setting [1], the half-maximal activity concentration (AC50) is 12.6 µM [rising, single point].
Regarding `Cc1ccc(-n2c(-c3ccccc3)c[n+]3c2CCc2ccccc2-3)c(C)c1`, the AC50 under setting [1] was 35.5 µM [rising, single point].
`CCOc1ccc2ccccc2c1C(=O)N1CCN(c2ccccc2)CC1`: the AC50 under setting [1] is 12.6 µM [rising, single point].
In the case of `COc1ccc(NC(=O)C(c2ccccc2)N(C)C(=O)c2ccc(=O)[nH]c2)cc1` (stereo not given), the half-maximal activity concentration (AC50) under setting [1] is 0.00562 µM [falling, full curve, poor fit].
Turning to `O=c1c2cnn(-c3ccccc3)c2ncn1Cc1ccccn1`, under setting [1], the half-maximal activity concentration (AC50) was 20 µM [rising, single point].
Consider `CC(Sc1ncnc2ccccc12)C(=O)Nc1ccc2c(c1)OCO2` (stereo not given), for which, under setting [2], the concentration at half-maximal activity (AC50) is 15.8 µM [falling, single point].
With `Cc1nn(Cc2c(Cl)cccc2Cl)c(Cl)c1/C=N/NC(=O)c1cccnc1`, the half-maximal activity concentration (AC50) runs as follows: under setting [2], 0.501 µM [rising, full curve, poor fit]; under setting [1], 0.0891 µM [rising, full curve, poor fit].
On to `COc1ccc(N2CCN(C(=O)c3nn(-c4ccc(C)cc4)c(=O)n(C)c3=O)CC2)cc1`, for which, under setting [1], the AC50 is 3.55 µM [falling, partial curve, poor fit].
As to `Cc1cc(O)ccc1C1(c2ccc(O)cc2C)OC(=O)c2ccccc21`, under setting [1], the half-maximal activity concentration (AC50) is 22.4 µM [rising, single point].
`COc1cc2ncc3c(-c4ccccc4)nn(-c4ccc(C)cc4)c3c2cc1OC`: the AC50 is 35.5 µM [falling, single point] under setting [2] and 35.5 µM [falling, single point] under setting [1].
Turning to `Cc1cc(C)cc(NC(=O)N2CCCC2C(=O)NCc2ccco2)c1` (stereo not given), under setting [2], the concentration at half-maximal activity (AC50) is 6.31 µM [rising, single point].
Take `CSC1=NC2(CCCCC2)CC12C=CC(=O)C=C2`: under setting [2], the AC50 is 17.8 µM [falling, partial curve, poor fit].
Consider `Cc1ccc(CNc2ncnc3cc(Cl)ccc23)o1`, for which the half-maximal activity concentration (AC50) reads like this: under setting [2], 15.8 µM [rising, partial curve, poor fit]; under setting [1], 12.6 µM [rising, partial curve].
In the case of `COc1cc(/C=C/C(=O)OCC(=O)NC(=O)NC(C)C)cc(OC)c1OC`, the concentration at half-maximal activity (AC50) under setting [1] is 6.31 µM [rising, single point].
With `Cc1cccc(C)c1NC(=O)CCn1cnc2ccccc2c1=O`, the AC50 under setting [2] is 0.0447 µM [rising, full curve, poor fit].
On to `Cc1ccccc1N=CC=C1OC(C)(C)C(C)(C)O1`, for which the half-maximal activity concentration (AC50) under setting [1] is 11.2 µM [rising, single point].
Turning to `Clc1ccc(OCCCNCc2ccccc2)c(Br)c1`, the concentration at half-maximal activity (AC50) under setting [2] was 25.1 µM [falling, single point] and the AC50 under setting [1] was 25.1 µM [falling, partial curve].
Consider `COc1cc(C(=O)NCCC(C)C)ccc1OCc1ccc(Cl)cc1Cl`, for which the concentration at half-maximal activity (AC50) runs as follows: under setting [2], 17.8 µM [rising, single point]; under setting [1], 35.5 µM [rising, partial curve].
Regarding `CC(=O)c1ccc(Sc2nnnn2-c2ccccc2)c([N+](=O)[O-])c1`, the concentration at half-maximal activity (AC50) under setting [2] is 22.4 µM [falling, single point].
Consider `CN(C)c1ccc(-c2ccc3ncnc(-n4ccnc4)c3c2)cc1`, for which the AC50 is 2.24 µM [falling, full curve] under setting [2] and 2.82 µM [falling, full curve] under setting [1].
`O=C(NC12CC3CC(CC(C3)C1)C2)c1ccc(-c2ccc(Cl)cc2)o1`: the AC50 was 12.6 µM [rising, partial curve] under setting [2] and 22.4 µM [rising, partial curve] under setting [1].
For the molecule `COC(=O)CSc1nnc(-c2ccncc2)n1N`, under setting [1], the concentration at half-maximal activity (AC50) is 0.0562 µM [falling, full curve, poor fit].
Turning to `Cc1ccc([N+](=O)[O-])cc1S(=O)(=O)N1CCn2cccc2C1c1ccc(F)c(F)c1` (stereo not given), the concentration at half-maximal activity (AC50) under setting [2] was 14.1 µM [rising, partial curve, poor fit].
As for `CCCOc1ccc(NC(=O)CC2C(=O)N(Cc3ccccc3)C(=S)N2Cc2cccs2)cc1` (stereo not given), the AC50 is, setting by setting: under setting [2], 10 µM [rising, single point]; under setting [1], 22.4 µM [rising, single point].
For the molecule `CC(=O)c1cccc(NC(=O)c2ccc3nc(C(C)C)oc3c2)c1`, the concentration at half-maximal activity (AC50) under setting [2] was 17.8 µM [falling, partial curve, poor fit].
Regarding `NC(=O)C1(N2CCCCC2)CCN(CC(=O)Nc2cc(Cl)ccc2Cl)CC1`, under setting [1], the AC50 is 35.5 µM [rising, single point].
Consider `Cc1cccc2cc3c(N)c(C(=O)N4CCCc5ccccc54)sc3nc12`, for which the AC50 under setting [2] is 35.5 µM [falling, single point].
The same measure, in the same setting: for `O=C(CN1C(=O)S/C(=C\c2ccccc2)C1=O)NNC(=O)c1ccccc1O` the value was 35.5 µM [rising, single point].
For `Cc1ccc2cccc(OCC(=O)N3CC(C)CC(C)C3)c2n1` (stereo not given), the concentration at half-maximal activity (AC50) under setting [1] was 0.355 µM [rising, full curve].
Consider `COC(=O)CSc1nc(N)c2c3c(sc2n1)C(c1ccccc1)SC(c1ccccc1)C3` (stereo not given), for which the concentration at half-maximal activity (AC50) under setting [2] is 28.2 µM [falling, single point] and the AC50 under setting [1] was 31.6 µM [falling, single point].
Turning to `COc1ccc(/C=C/C(=O)c2ccc(O)cc2)cc1CN1CCOCC1`, the concentration at half-maximal activity (AC50) under setting [1] is 10 µM [rising, partial curve].
In the case of `Cc1cc(C)c2nc(C(F)(F)F)nc(NCCCN3CCOCC3)c2c1`, the concentration at half-maximal activity (AC50) reads like this: under setting [2], 35.5 µM [rising, single point]; under setting [1], 31.6 µM [rising, single point].
As for `NS(=O)(=O)c1ccc(CCNC(=O)COC(=O)CCc2ccccc2)cc1`, the AC50 under setting [2] is 11.2 µM [falling, partial curve, poor fit].
Take `CC(C)(C)n1c(=O)[nH]c2c(c1=O)CCC2`: under setting [1], the half-maximal activity concentration (AC50) is 5.01 µM [falling, partial curve, poor fit].
Regarding `O=c1c2ccccc2nnn1Cc1ccccc1Cl`, the concentration at half-maximal activity (AC50) by setting is: under setting [2], 0.01 µM [falling, full curve, poor fit]; under setting [1], 0.0316 µM [falling, full curve, poor fit].
